# Reference: patent publication US20160201132A1, “GENE EXPRESSION BIOMARKERS OF LAQUINIMOD RESPONSIVENESS” (Teva Pharmaceutical Industries Ltd., priority 2013, published 2016)
# This continues a long series; more values of the same kind are listed elsewhere.
# Test system: PBMC of RRMS patients
# Test: Gene expression microarray analysis (HG-U133A-2) of PBMC from RRMS patients treated with LAQ, ancillary study to ALLEGRO
# Assay type: in vivo, human
# Text: The goal of this ancillary study was to characterize gene expression changes and corresponding biological mechanisms induced in PBMC of RRMS patients by LAQ treatment. According to ALLEGRO clinical trial inclusion criteria, 25 patients were randomly assigned to receive LAQ (n=13, age 38.8±2.3 years, female/male ratio: 8/5) or placebo (n=12, age 37.2±3.4 years, female/male ratio: 8/4).
# Peripheral blood samples were obtained from RRMS patients at baseline before start of LAQ treatment or placebo, after 0, 1, 6 and 24 month of treatment (visit 0, 1, 6 and 7 according to ALLEGRO clinical trial protocol correspondently) for gene microarray analysis.
# Briefly, 1) Peripheral blood mononuclear cells (PBMC) were obtained from RRMS patients that participated in ALLEGRO and were treated daily with 0.6 mg LAQ or placebo. PBMC were subjected for gene expression analysis (HU-133A-2-Affymatrix arrays) at baseline and at 1 and 6 months of LAQ treatment; 2) Data was analyzed by Partek Genomics Solution software. Most informative genes (MIGs) were defined as those that differentiated between groups with p<0.01. Gene functional annotation, enrichment and pathway analysis were performed by Ingenuity software. For each time point, genes that changed in placebo group were excluded from further analysis; and 3) Verification of LAQ related mechanism was performed by Western blot.
# PBMC were extracted from 15 ml peripheral blood, separated by Ficoll-Hypaque gradient. Total RNA was extracted using both Trizol (Invitrogen, USA) and Phase-Lock-Gel columns (Eppendorf, Germany) including a DNase digestion step. RNA integrity was assessed by RNA Experion automated electrophoresis system (Bio-Rad Laboratories, Hercules, Calif.).
# Probe synthesis using 3 μg total RNA, hybridization, detection, and scanning was performed according to the standard Affymetrix, Inc. USA protocols; cDNA was synthesized using the Two-Cycle cDNA Synthesis Kit (Affymetrix, Inc., USA), and in-vitro transcription performed with the GeneChip IVT Labeling Kit (Affymetrix, Inc., USA). The biotin-labeled IVT-RNA was hybridized to HG-U133A-2 arrays containing 18,400 gene transcripts, each corresponding to 14,500 well-annotated human genes, washed in a GeneChip Fluidics Station 450 (Hewlett Packard, USA, GeneArray-™ scanner G2500A) and scanned according to the manufacturer's protocol (Affymetrix, Inc., USA).
# Data analysis was performed on Partek Genomics Solution software (www.partek.com; Partek Incorporated, St. Louis, Mo.). Expression values were computed from raw CEL files by applying the Robust Multi-Chip Average (RMA) background correction algorithm. RMA correction included: 1) values background correction; 2) quintile normalization; 3) log 2 transformation; and 4) median polish summarization. The ANOVA, Repeated Measures and correlation analysis implicated in Partek software ware applied to evaluate LAQ effects. Most informative genes MIGs were defined as those that differentiated between experimental groups with p<0.01. All p-values were calculated for False Discovery Rate (FDR) multiple test correction at p=0.05.
# Additionally, significance of individual genes was tested by parametric T-test and non parametric Mann-Whitney test using Bootstrapping approach based on repeated permutations of the data with 5% FDR for multiple testing.
# Gene functional annotation, enrichment, and pathway analyses to identify the leading biological pathways that operated under LAQ treatment were performed by Ingenuity Pathways Analysis software (www.ingenuity.com).
# ANOVA analysis was used to compare PBMC gene expression after 1, 6 or 24 month of LAQ treatment with baseline gene expression.
# For each time point inventors performed analysis source of variation in dataset. (FIG. 1). Age, gender and batch effects were considered as confounders regarding LAQ or Placebo related changes. For each time point genes associated with Placebo effect were evaluated and excluded from further analysis. […]
smiles,measurement,setting,value
"CCN(C(=O)c1c(O)c2c(Cl)cccc2n(C)c1=O)c1ccccc1 [LAQ, 5-chloro-N-ethyl-4-hydroxy-1-methyl-2-oxo-N-phenyl-1,2-dihydroquinoline-3-carboxamide]",Fold-Change (4.0 vs. 0.0),"gene TF, PBMC, six months of LAQ treatment",−1.12
same,Fold-Change (4.0 vs. 0.0),"gene TF, after six months of LAQ",−1.142
same,Fold-Change (4.0 vs. 0.0),"gene TFAP2C, after six months of LAQ",−1.132
same,Fold-Change (4.0 vs. 0.0),"gene TFAP4, six months of treatment",−1.147
same,Fold-Change (4.0 vs. 0.0),"gene TFF3, after six months of LAQ",−1.247
same,Fold-Change (4.0 vs. 0.0),"gene TFPI, six months of treatment",−1.161
same,Fold-Change (4.0 vs. 0.0),gene TFR2,−1.188
same,Fold-Change (4.0 vs. 0.0),"gene TGM2, after six months of LAQ",−1.338
same,Fold-Change (4.0 vs. 0.0),"gene THPO, PBMC, six months of LAQ treatment",−1.091
same,Fold-Change (4.0 vs. 0.0),gene THRB,−1.177
same,Fold-Change (4.0 vs. 0.0),"gene THSD7A, after six months of LAQ",−1.1321
same,Fold-Change (4.0 vs. 0.0),"gene TIMELESS, six months of treatment",−1.146
same,Fold-Change (4.0 vs. 0.0),"gene TIMP3, six months of treatment",−1.156
same,Fold-Change (4.0 vs. 0.0),"gene TLL2, after six months of LAQ",−1.123
same,Fold-Change (4.0 vs. 0.0),"gene TLX1, six months of treatment",−1.154
same,Fold-Change (4.0 vs. 0.0),"gene TLX3, six months of treatment",−1.145
same,Fold-Change (4.0 vs. 0.0),"gene TM7SF4, six months of treatment",−1.158
same,Fold-Change (4.0 vs. 0.0),"gene TMEM158, after six months of LAQ",−1.882
same,Fold-Change (4.0 vs. 0.0),"gene TMEM212, after six months of LAQ",−1.143
same,Fold-Change (4.0 vs. 0.0),"gene TMEM222, after six months of LAQ",−1.131
same,Fold-Change (4.0 vs. 0.0),"gene TMPRSS11D, six months of treatment",−1.159
same,Fold-Change (4.0 vs. 0.0),"gene TMSB15A, six months of treatment",−1.154
same,Fold-Change (4.0 vs. 0.0),"gene TNC, six months of treatment",−1.148
same,Fold-Change (4.0 vs. 0.0),"gene TNFRSF11B, PBMC, six months of LAQ treatment",−1.116
same,Fold-Change (4.0 vs. 0.0),"gene TNIP3, six months of treatment",−1.159
same,Fold-Change (4.0 vs. 0.0),"gene TNN, six months of treatment",−1.16
same,Fold-Change (4.0 vs. 0.0),"gene TNPO2, six months of treatment",−1.159
same,Fold-Change (4.0 vs. 0.0),"gene TOX3, after six months of LAQ",−1.141
same,Fold-Change (4.0 vs. 0.0),gene TP63,−1.185
same,Fold-Change (4.0 vs. 0.0),"gene TP63, after six months of LAQ",−1.261
same,Fold-Change (4.0 vs. 0.0),"gene TPD52L1, six months of treatment",−1.158
same,Fold-Change (4.0 vs. 0.0),"gene TPM2, after six months of LAQ",−1.13
same,Fold-Change (4.0 vs. 0.0),"gene TREH, PBMC, six months of LAQ treatment",−1.122
same,Fold-Change (4.0 vs. 0.0),"gene TRIM3, after six months of LAQ",−1.126
same,Fold-Change (4.0 vs. 0.0),"gene TRIM9, six months of treatment",−1.153
same,Fold-Change (4.0 vs. 0.0),"gene TRIM10, six months of treatment",−1.147
same,Fold-Change (4.0 vs. 0.0),gene TRIM15,−1.186
same,Fold-Change (4.0 vs. 0.0),gene TRIM17,−1.187
same,Fold-Change (4.0 vs. 0.0),"gene TRIM49, after six months of LAQ",−1.128
same,Fold-Change (4.0 vs. 0.0),"gene TRIM58, after six months of LAQ",−1.736
same,Fold-Change (4.0 vs. 0.0),"gene TRMT61A, after six months of LAQ",−1.1428
same,Fold-Change (4.0 vs. 0.0),"gene TRPC4, after six months of LAQ",−1.127
same,Fold-Change (4.0 vs. 0.0),"gene TRPC7, after six months of LAQ",−1.234
same,Fold-Change (4.0 vs. 0.0),"gene TRPV4, PBMC, six months of LAQ treatment",−1.121
same,Fold-Change (4.0 vs. 0.0),"gene TSHB, six months of treatment",−1.147
same,Fold-Change (4.0 vs. 0.0),"gene TSPAN1, after six months of LAQ",−1.235
same,Fold-Change (4.0 vs. 0.0),"gene TSPY1, six months of treatment",−1.146
same,Fold-Change (4.0 vs. 0.0),gene TUBB2B,−1.188
same,Fold-Change (4.0 vs. 0.0),"gene UBE2D4, PBMC, six months of LAQ treatment",−1.104
same,Fold-Change (4.0 vs. 0.0),"gene UBE2I, after six months of LAQ",−1.265
same,Fold-Change (4.0 vs. 0.0),gene UBQLN3,−1.1902
same,Fold-Change (4.0 vs. 0.0),"gene UGT1A1 /// UGT1A10 /// UGT1A3 /// UGT1A4 /// UGT1A5 /// UGT1A6 /// UGT1A7 /// UGT1A8 /// UGT1A9, six months of treatment",−1.154
same,Fold-Change (4.0 vs. 0.0),"gene UGT1A1 /// UGT1A10 /// UGT1A4 /// UGT1A6 /// UGT1A8 /// UGT1A9, after six months of LAQ",−1.227
same,Fold-Change (4.0 vs. 0.0),"gene UGT1A1 /// UGT1A10 /// UGT1A7 /// UGT1A8, six months of treatment",−1.1547
same,Fold-Change (4.0 vs. 0.0),gene UGT2A1 /// UGT2A2,−1.191
same,Fold-Change (4.0 vs. 0.0),gene UGT2B15,−1.177
same,Fold-Change (4.0 vs. 0.0),"gene UGT2B15, after six months of LAQ",−1.139
same,Fold-Change (4.0 vs. 0.0),"gene UNC5B, six months of treatment",−1.151
same,Fold-Change (4.0 vs. 0.0),"gene UNC93A, after six months of LAQ",−1.123
same,Fold-Change (4.0 vs. 0.0),gene UPK1B,−1.192
same,Fold-Change (4.0 vs. 0.0),"gene USH1C, six months of treatment",−1.159
same,Fold-Change (4.0 vs. 0.0),gene USP46,−1.187
same,Fold-Change (4.0 vs. 0.0),"gene VAC14, after six months of LAQ",−1.297
same,Fold-Change (4.0 vs. 0.0),"gene VGLL1, after six months of LAQ",−1.143
same,Fold-Change (4.0 vs. 0.0),gene WFDC8,−1.188
same,Fold-Change (4.0 vs. 0.0),"gene WNT11, six months of treatment",−1.157
same,Fold-Change (4.0 vs. 0.0),gene WSCD1,−1.176
same,Fold-Change (4.0 vs. 0.0),"gene XAGE1A /// XAGE1B /// XAGE1C /// XAGE1D /// XAGE1E, six months of treatment",−1.1482
same,Fold-Change (4.0 vs. 0.0),"gene XYLT1, PBMC, six months of LAQ treatment",1.332
same,Fold-Change (4.0 vs. 0.0),"gene YOD1, PBMC, six months of LAQ treatment",−1.117
same,Fold-Change (4.0 vs. 0.0),"gene ZBED2, after six months of LAQ",−1.256
same,Fold-Change (4.0 vs. 0.0),"gene ZER1, six months of treatment",−1.154
same,Fold-Change (4.0 vs. 0.0),"gene ZNF155, after six months of LAQ",−1.227
same,Fold-Change (4.0 vs. 0.0),"gene ZNF214, six months of treatment",−1.1492
same,Fold-Change (4.0 vs. 0.0),"gene ZNF224, six months of treatment",−1.16
same,Fold-Change (4.0 vs. 0.0),"gene ZNF324B /// ZNF584, PBMC, six months of LAQ treatment",−1.114
same,Fold-Change (4.0 vs. 0.0),"gene ZNF467, after six months of LAQ",−1.129
same,Fold-Change (4.0 vs. 0.0),"gene ZNF471, PBMC, six months of LAQ treatment",−1.12
same,Fold-Change (4.0 vs. 0.0),"gene ZNF550, after six months of LAQ",−1.269
same,Fold-Change (4.0 vs. 0.0),"gene ZNF674, PBMC, six months of LAQ treatment",−1.116
same,Fold-Change (4.0 vs. 0.0),gene ZNF821,−1.195
same,Fold-Change (4.0 vs. 0.0),"gene ZNRF4, six months of treatment",−1.149
